Results: publication PMC9354243, “The Role of Tryptophan in π Interactions in Proteins: An Experimental Approach” (Journal of the American Chemical Society, 2022)

Test system: LmrR expressed in L. lactis Trp auxotroph strain PA1002
Test: Biosynthetic incorporation of Trp analogs into LmrR, MALDI-TOF after tryptic digestion
Design: species or system Lactococcus lactis
Conditions: MALDI-TOF peak areas; for Incorporation efficiency, Position 67: Trp analog at position 67 in LmrR; for Incorporation efficiency, Position 96: Trp analog at position 96 in LmrR

| SMILES | Incorporation efficiency, Position 67 | Incorporation efficiency, Position 96 |
| --- | --- | --- |
| N[C@@H](Cc1c[nH]c2c(F)c(F)c(F)c(F)c12)C(=O)O [4,5,6,7tetraFW, 4,5,6,7-tetrafluorotryptophan] | 76% | > 96% |
| N[C@@H](Cc1c[nH]c2cc(F)c(F)cc12)C(=O)O [5,6diFW, 5,6-difluorotryptophan] | > 99% | > 99% |
